Here are results for 1 substance from patent US20180066241A1, “PRO-APOPTOTIC SET AND PP2A PEPTIDES” (Universite Pierre Et Marie Curie (Paris 6), priority 2015, published 2018).

Chains of the proteins cited; added tags and fusions are not shown. Lines headed by an entry give the natural chain unless they say otherwise; changes in a name come on top. A line that says so, or that is headed by a name, gives the form on record, which may keep a tag or linker.
SET protein (purified recombinant) (Q01105, form named): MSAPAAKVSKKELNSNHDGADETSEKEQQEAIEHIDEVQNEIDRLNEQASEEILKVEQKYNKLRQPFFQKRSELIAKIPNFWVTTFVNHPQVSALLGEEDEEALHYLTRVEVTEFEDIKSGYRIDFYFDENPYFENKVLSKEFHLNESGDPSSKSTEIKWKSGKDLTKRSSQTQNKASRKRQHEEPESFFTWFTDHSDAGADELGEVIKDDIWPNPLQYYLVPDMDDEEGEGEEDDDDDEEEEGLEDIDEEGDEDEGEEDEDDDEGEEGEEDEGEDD

These are yes or no findings as the source states them, for the method shown. Some entries that bind do so weakly or less than the wild type.

This test deals with T1, PP2Ac sequence bound by SET, … (SEQ ID NO: 1) (human).
T1 sequence (peptide): ETVTLLVALKVRYRERIT
Briefly: SPOT peptide array on cellulose membrane, recombinant SET probe, anti-SET antibody, ECL.

Turning to “SET protein (purified recombinant) (from UniProt Q01105 1-277)”, the binding entry was “binds”.
